Laboratory results taken from the supplement of paper PMC9015667.
Structures can show the parent of a compound that is named as a salt. Some of the results follow. Repeats are few or missing, and single values can be far off.

Key:
Assay in all cases: reduction in cell viability relative to untreated/vehicle; higher = more growth inhibition
Conditions in all cases: 200 nM; 72 h
M229P = tested on: M229P (parental melanoma line)
M229R = tested on: M229R (matched melanoma line resistant to BRAF inhibitors)
M238P = tested on: M238P (parental melanoma line)
M238R = tested on: M238R (matched melanoma line resistant to BRAF inhibitors)
M249P = tested on: M249P (parental melanoma line)
M249R = tested on: M249R (matched melanoma line resistant to BRAF inhibitors)
UACC62P = tested on: UACC62P (parental melanoma line)
UACC62R = tested on: UACC62R (matched melanoma line resistant to BRAF inhibitors)

Measured: reduction in cell viability

COc1ccc2c(OCc3nnc4ccc(-c5ccccc5)nn34)ccnc2c1
6.35%: UACC62R
< 0%: all other assays above

CCN(CC)CCCCNc1ncc2cc(-c3cc(OC)cc(OC)c3)c(NC(=O)NC(C)(C)C)nc2n1
< 0%: all assays above

COc1cc(OC)c(/C=C/S(=O)(=O)Cc2ccc(OC)c(NCC(=O)O)c2)c(OC)c1
51.3%: UACC62P
22.9%: M229P
69.8%: M238P
56.3%: M249P
68.7%: M238R
38.2%: M229R
48%: M249R
84%: UACC62R

O=C(Nc1nnc(-c2ccco2)o1)c1cc(-c2ccccc2)nc2ccccc12
< 0%: all assays above

CC[C@]1(O)C[C@@H]2CN(CCc3c([nH]c4ccccc34)[C@@](C(=O)OC)(c3cc4c(cc3OC)N(C)[C@H]3[C@@](O)(C(=O)OC)[C@H](OC(C)=O)[C@]5(CC)C=CCN6CC[C@]43[C@@H]65)C2)C1 [Vinblastine]
57%: M238P
33.5%: M229P
46.7%: M229R
39.1%: M249R
45.3%: M249P
44.5%: UACC62P
55.5%: M238R
72.9%: UACC62R

C=CC(=O)Nc1cccc(Oc2nc(Nc3ccc(N4CCN(C)CC4)cc3)ncc2Cl)c1
10.9%: M238P
22.2%: UACC62P
9.44%: UACC62R
< 0%: all other assays above

Nc1nc2c(ncn2COCCO)c(=O)[nH]1 [Aciclovir]
< 0%: all assays above

O=C(O)c1ccc(-c2cc3cccnc3c(-c3ccc4nonc4c3)n2)cc1
< 0%: all assays above

Nc1nccc(Oc2ccc(NC(=O)c3c[nH]cc(-c4ccc(F)cc4)c3=O)cc2F)c1Cl
< 0%: all assays above

CS(=O)(=O)Oc1ccc2c(NC(N)=O)c(C(=O)c3ccc(Cl)cc3Cl)oc2c1 [Lirimilast]
18.1%: UACC62P
6.93%: M249R
< 0%: all other assays above

CCOC(=O)[C@H](CCc1ccccc1)N[C@H]1CCc2ccccc2N(CC(=O)O)C1=O [Benazepril]
12.1%: M229R
< 0%: all other assays above

CC(C)(O)CC(=O)NCCn1ccc2ncnc(Nc3ccc(Oc4cccc(C(F)(F)F)c4)c(Cl)c3)c21
< 0%: all assays above

CCN(CC)CCNC(=O)c1c(C)[nH]c(/C=C2\C(=O)Nc3ccc(F)cc32)c1C [Sunitinib malate]
10.2%: UACC62P
< 0%: all other assays above

CCN1CCN(c2ccc(Nc3cc(N(C)C(=O)Nc4c(Cl)c(OC)cc(OC)c4Cl)ncn3)cc2)CC1
< 0%: all assays above

COc1cc2ncnc(Nc3cccc(Cl)c3)c2cc1OC
< 0%: all assays above

Cc1[nH]c(/C=C2\C(=O)Nc3ccc(S(=O)(=O)Cc4c(Cl)cccc4Cl)cc32)c(C)c1C(=O)N1CCC[C@@H]1CN1CCCC1
< 0%: all assays above

CCOc1ccc(Cc2cc([C@@H]3O[C@H](CO)[C@@H](O)[C@H](O)[C@H]3O)ccc2Cl)cc1 [Dapagliflozin]
2.36%: M229R
< 0%: all other assays above

COC(=O)C1=C(C)NC(C)=C(C(=O)OCCN2CCN(C(c3ccccc3)c3ccccc3)CC2)C1c1cccc([N+](=O)[O-])c1 (stereo not given) [Manidipine dihydrochloride]
12%: UACC62P
< 0%: all other assays above

CC(=O)Nc1cccc(-n2c(=O)n(C3CC3)c(=O)c3c(Nc4ccc(I)cc4F)n(C)c(=O)c(C)c32)c1 [Trametinib]
33.5%: M229P
58.6%: UACC62P
35.5%: M238P
58.7%: M249R
33.3%: UACC62R
16.4%: M229R
< 0%: M238R
79.3%: M249P

CCCNCC(O)COc1ccccc1C(=O)CCc1ccccc1 (stereo not given) [Propafenone hydrochloride]
5.75%: M249R
11.1%: UACC62P
< 0%: all other assays above

c1ccc(CNc2nc(N3CCOc4ccccc43)nc3c2CCCC3)cc1
< 0%: all assays above

Nc1nc(=O)n([C@H]2C[C@H](O)[C@@H](CO)O2)cc1F
63%: UACC62R
13.3%: M238P
13%: UACC62P
< 0%: all other assays above

O=C(O)Cc1ccccc1Nc1c(Cl)cccc1Cl [Diclofenac sodium]
2.99%: UACC62P
< 0%: all other assays above

COC(=O)[C@H](c1ccccc1Cl)N1CCc2sccc2C1 [Clopidogrel bisulfate]
< 0%: all assays above

CC(C(=O)O)c1ccc2c(c1)CC(=O)c1ccccc1S2 (stereo not given) [Zaltoprofen]
5.9%: M249R
< 0%: all other assays above

CN(C)Cc1cccc(N/C(=C2\C(=O)Nc3cc(C(N)=O)ccc32)c2ccccc2)c1
< 0%: all assays above

N#Cc1ccc(Oc2ccc3c(c2)COB3O)cc1
< 0%: all assays above

C/C(O)=C(\C#N)C(=O)Nc1ccc(C(F)(F)F)cc1 [Teriflunomide]
< 0%: all assays above

Oc1cc(-c2nc(-c3ccccc3)[nH]c2-c2ccncc2)ccc1Cl
45.1%: UACC62P
24.1%: M238P
12.6%: M249P
9.93%: M229P
< 0%: all other assays above

Structural class: the entries above containing a CF3 group.
CC(C)(O)CC(=O)NCCn1ccc2ncnc(Nc3ccc(Oc4cccc(C(F)(F)F)c4)c(Cl)c3)c21
< 0%: all assays above

C/C(O)=C(\C#N)C(=O)Nc1ccc(C(F)(F)F)cc1 [Teriflunomide]
< 0%: all assays above

Continuation.

CN(C)C/C=C/C(=O)Nc1cc2c(Nc3ccc(F)c(Cl)c3)ncnc2cc1O[C@H]1CCOC1 [Afatinib]
< 0%: all assays above

Cc1cc(NC(=O)Nc2ccc(N(C)C)cc2)c2cc(F)cc(F)c2n1
< 0%: all assays above

COc1ccc2c3c1O[C@H]1C[C@@H](O)C=C[C@@]31CCN(C)C2 [Galantamine hydrobromide]
< 0%: all assays above

CC(C)C[C@H](CC(=O)O)C(=O)N[C@@H](Cc1c[nH]c2ccccc12)C(=O)N[C@@H](C)c1ccccc1
< 0%: all assays above

C=CC1=C(C(=O)O)N2C(=O)[C@@H](NC(=O)/C(=N\O)c3csc(N)n3)[C@H]2SC1 [Cefdinir]
< 0%: all assays above

CC1CNc2c(cccc2S(=O)(=O)N[C@@H](CCCNC(=N)N)C(=O)N2CC[C@@H](C)C[C@@H]2C(=O)O)C1 (stereo not given in full) [Argatroban]
4.09%: UACC62P
< 0%: all other assays above

Cc1ccc(N(CC2=NCCN2)c2cccc(O)c2)cc1 [Phentolamine mesilate]
< 0%: all assays above

Cc1cccc(N(C)C(=S)Oc2ccc3ccccc3c2)c1 [Tolnaftate]
< 0%: all assays above

CN(C)C[C@@H]1CCn2cc(c3ccccc32)C2=C(C(=O)NC2=O)c2cn(c3ccccc23)CCO1 [Ruboxistaurin mesilate]
6.22%: M238P
5.1%: M249P
25.2%: UACC62P
< 0%: all other assays above

N#CN=C(NCCCCCCOc1ccc(Cl)cc1)Nc1ccncc1
7.25%: UACC62R
73.3%: M229R
84.1%: M249R
61.7%: M238P
6.96%: UACC62P
85.3%: M229P
80.8%: M249P
45.9%: M238R

O=C1c2c(O)cc(O)cc2OC(c2ccc(O)c(O)c2)C1O (stereo not given) [Taxifolin]
< 0%: all assays above
